Data on 54 sequences can be found in paper PMC7819943, “Rice protein-binding microarrays: a tool to detect cis-acting elements near promoter regions in rice”.

By UniProt entry, the sequences of proteins in these tests, tags left out.
UniProt Q0JBA9, entry or part of it: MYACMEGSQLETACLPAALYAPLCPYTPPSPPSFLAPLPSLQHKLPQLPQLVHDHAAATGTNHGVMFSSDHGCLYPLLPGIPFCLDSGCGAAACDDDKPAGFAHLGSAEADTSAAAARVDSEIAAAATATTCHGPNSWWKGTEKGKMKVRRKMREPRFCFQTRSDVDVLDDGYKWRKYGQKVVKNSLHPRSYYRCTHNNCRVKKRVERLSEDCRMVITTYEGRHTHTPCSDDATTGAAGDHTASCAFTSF

The list shows a part of the results.

The target of the test is OsWRKY34 (Oryza sativa, UniProt Q0JBA9 1-250). The experiment in a line: protein-binding microarray (RPBM); PBS, 2% BSA, 51.3 ng/ul salmon testes DNA, 50 uM zinc acetate, 200 nM TF, 25 C, 1 h; high values mean tight binding. As to conditions: protein: recombinant; tags: N-terminal polyhistidine and DsRed monomer fusion (pET32a); label: CyDye5-dUTP incorporated in the synthesized complementary strand; 3' TTTTT single-stranded linker to array surface; dsDNA, one strand shown. In short, it runs like this: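 The binding signal is fluorescence intensity per feature, in arbitrary units, read on an Axon 4000B scanner. Polyhistidine- and DsRed-tagged transcription factors (N-terminal fusions) from E. coli BL21-CodonPlus were purified on Ni–NTA and applied at 200 nM for 1 h at 25 °C to a double-stranded, BSA-blocked custom Agilent array in buffer with 50 µM zinc acetate.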
For “TATCCATTTTTCCCATCACCTATAGCCCCTACCACACTTCCGGAGTCACCTAGTGCAG”, the binding signal was 9420 fluorescence intensity (a.u.).

Take “AGTTCACCTCCCTAACCTTTGCCTCTCACTCACACAAAGTCGGAGTCACCTAGTGCAG”: the binding signal was 8050 fluorescence intensity (a.u.).

On to “ACCCCACCAAGAACACAGCCTAAATTTTGATATTTATGATCGGAGTCACCTAGTGCAG”, for which the binding signal is 8720 fluorescence intensity (a.u.).

On to “AACCAAAATGCATTTTCATATCCACTGTTTGTCTGTGTTGCGGAGTCACCTAGTGCAG”, for which the binding signal is 9110 fluorescence intensity (a.u.).

Take “TTTATTTTATTTTATACTGATGCATGTTAACTTACTGTGCCGGAGTCACCTAGTGCAG”: the binding signal was 8840 fluorescence intensity (a.u.).

In the case of “ACTATGCACCAGTACAATTTACAGCAGTATTAATGCTTACCGGAGTCACCTAGTGCAG”, the binding signal was 8550 fluorescence intensity (a.u.).

Consider “TCAGAACAGACTCATAAACCATTTGTCAGACTTTTCCTACCGGAGTCACCTAGTGCAG”, for which the binding signal was 9320 fluorescence intensity (a.u.).

As for “TCCATACGCAGGTACTCCTCCTACTAATTAGTAGTGCTGTCGGAGTCACCTAGTGCAG”, the binding signal was 8300 fluorescence intensity (a.u.).

In the case of “TGTCCGCCACTCCACCCGATCACAGAAAACACACGCGCGTCGGAGTCACCTAGTGCAG”, the binding signal is 8750 fluorescence intensity (a.u.).

With “TCGCGGAACCACCACATCATCTCATCAGCCACCAGTTAGCCGGAGTCACCTAGTGCAG”, the binding signal is 8030 fluorescence intensity (a.u.).

Take “ATTCTCGGTCGATCGGTGTTCGTTTTCGACTTTCTACCGGCGGAGTCACCTAGTGCAG”: the binding signal was 8400 fluorescence intensity (a.u.).

On to “ATTATGTGTCTAAGGTATGTGGGTTCAGTGGTAAATCTTTCGGAGTCACCTAGTGCAG”, for which the binding signal is 8500 fluorescence intensity (a.u.).

With “TCTGGTTTTGTAATTAGGGGACGATTTTGTATCTCGATGACGGAGTCACCTAGTGCAG”, the binding signal is 8500 fluorescence intensity (a.u.).

On to “CGAGTTTGTTTCCTGCTGTCTGTGCGATAATGTTTTCTGCCGGAGTCACCTAGTGCAG”, for which the binding signal was 9000 fluorescence intensity (a.u.).

Take “GCTGGTCTTTGGGCTTGTGTGCGTGTTCCAACTGTCGCATCGGAGTCACCTAGTGCAG”: the binding signal is 8180 fluorescence intensity (a.u.).

“GTATTGTGTATTGCAAGGCAAATTGTTTGTTTTTGAGCGACGGAGTCACCTAGTGCAG”: the binding signal is 9040 fluorescence intensity (a.u.).

In the case of “GCCACACATTGCATCATCTACTGTAGGACTAAATCAATCTCGGAGTCACCTAGTGCAG”, the binding signal is 9360 fluorescence intensity (a.u.).

For “CTTGACCCTGCATGTTCATCATGTGCAGCATACATATATACGGAGTCACCTAGTGCAG”, the binding signal was 9640 fluorescence intensity (a.u.).

Turning to “TCTCGCTCGTTTTACCGCAGCATTTTGTTGTTGCTCTAGCCGGAGTCACCTAGTGCAG”, the binding signal was 8620 fluorescence intensity (a.u.).

Regarding “CTGCGTCGCCGTCTCCGGCGCCATGCTCGTCCTGCTCCTCCGGAGTCACCTAGTGCAG”, the binding signal was 9850 fluorescence intensity (a.u.).

With “TTGTACTATTGGGTTCTAGATCTAACCTTCCCATGTGCTTCGGAGTCACCTAGTGCAG”, the binding signal is 8440 fluorescence intensity (a.u.).

As for “CTGAGCACGTCGCTACGCACAGCTTCTGCCTGAATTTCGTCGGAGTCACCTAGTGCAG”, the binding signal was 8670 fluorescence intensity (a.u.).

For the sequence “TGCTTTGGGACCACTCCCTCTCTCTTTCTCTCTCTCACTTCGGAGTCACCTAGTGCAG”, the binding signal was 10200 fluorescence intensity (a.u.).

Turning to “TAACTTTTCCATTGTGTCGTTCCAATTTCAACTAAACTTCCGGAGTCACCTAGTGCAG”, the binding signal was 10300 fluorescence intensity (a.u.).

In the case of “CCAACGGGAGGCCTGCAAAATTGTCGCGATGTGCCCCTTCCGGAGTCACCTAGTGCAG”, the binding signal was 8250 fluorescence intensity (a.u.).

On to “CATCCGCCATCTCATCTAATCTCATCCGTCCATCGCTATCCGGAGTCACCTAGTGCAG”, for which the binding signal is 8220 fluorescence intensity (a.u.).

Take “TCTTTTTCGGAAGTTTTTTTTTTCTTCCCCTCTCGTTCTCCGGAGTCACCTAGTGCAG”: the binding signal is 8160 fluorescence intensity (a.u.).

For the sequence “ACCTTTCCTTTCATCTCTTCCGCTGGTTTTGTGGGATATTCGGAGTCACCTAGTGCAG”, the binding signal is 12800 fluorescence intensity (a.u.).

“TTTCGATACCGTTTTCATTTTATTCTTTACTGTTTTCGATCGGAGTCACCTAGTGCAG”: the binding signal is 10500 fluorescence intensity (a.u.).

For the sequence “ACATTCCCTTGTTGTTTCCTTGTCATCTAAATTGTTATAACGGAGTCACCTAGTGCAG”, the binding signal was 12400 fluorescence intensity (a.u.).

For “TGGGTGGTGTTGGTTTTGCATGGTAGACGCGGGGTCCGATCGGAGTCACCTAGTGCAG”, the binding signal was 18400 fluorescence intensity (a.u.).

Consider “GGGTAGTAGTCAGCTACTCGAAGTAGGGTTAGGTTCATAGCGGAGTCACCTAGTGCAG”, for which the binding signal was 8820 fluorescence intensity (a.u.).

On to “CTTCGCTTCTTCTGCCTCTGCAGCAATGCTATGTTTAATTCGGAGTCACCTAGTGCAG”, for which the binding signal is 11100 fluorescence intensity (a.u.).

For the sequence “TCTGTCCCATCACCAGAACATTTTGGCGTGTTATACGTCGCGGAGTCACCTAGTGCAG”, the binding signal is 8350 fluorescence intensity (a.u.).

For “TGGTTTATCTAACTATCTTGGTCTAACTGCCAACATCTTCCGGAGTCACCTAGTGCAG”, the binding signal is 9550 fluorescence intensity (a.u.).

For “GGTTAATTTCTAGGGTATGGTGATGGTAATGTTGCGGCGACGGAGTCACCTAGTGCAG”, the binding signal was 10600 fluorescence intensity (a.u.).

Take “TTTTGACCAACGTTTGACTATTCGTTTTATTCAAATTTTTCGGAGTCACCTAGTGCAG”: the binding signal was 9930 fluorescence intensity (a.u.).

As to “TTGCTTTATACTCCTTCCGTTCCAAAATGACCATCGTATACGGAGTCACCTAGTGCAG”, the binding signal is 8140 fluorescence intensity (a.u.).

“TCGGGTTAGAGCCTCTCTCTCTCTCTCTCTCTCTCTCTCTCGGAGTCACCTAGTGCAG”: the binding signal is 9360 fluorescence intensity (a.u.).

Turning to “ATCAAGATAGTTCGGCCCATCCTAGCTTTTAGTCCATCACCGGAGTCACCTAGTGCAG”, the binding signal is 8150 fluorescence intensity (a.u.).

Consider “TGGACCGTGGTTTTGGCTGCTCCTCCGGTTCGCCGGCGGCCGGAGTCACCTAGTGCAG”, for which the binding signal was 8120 fluorescence intensity (a.u.).

Take “CAATGGTATATTAATCCTGCCATGTTACAAATCAGCGCTACGGAGTCACCTAGTGCAG”: the binding signal is 8100 fluorescence intensity (a.u.).

For the sequence “TCCTCTTCCCACGCGCCGCCGCCGCCGCCGCCGCTGCCGCCGGAGTCACCTAGTGCAG”, the binding signal was 10200 fluorescence intensity (a.u.).

Consider “ATAGAGCTTTAAATGTATTTGTGTAGTTTATTTCACATATCGGAGTCACCTAGTGCAG”, for which the binding signal was 8730 fluorescence intensity (a.u.).

For the sequence “CGCTCACTCGGTTTGGTTTGGTTTGGATTGTATTGGGTTGCGGAGTCACCTAGTGCAG”, the binding signal was 39200 fluorescence intensity (a.u.).

For the sequence “GTTTATGTACCCCGGCCGGTCCTGGACAGGGATTTTAATGCGGAGTCACCTAGTGCAG”, the binding signal is 9640 fluorescence intensity (a.u.).

For “TACCATATCATGCTATTTCACTTCATTTAGAAATGAATGCCGGAGTCACCTAGTGCAG”, the binding signal was 8420 fluorescence intensity (a.u.).

For the sequence “CCGGATTAGACCTACATTACCATTCGAGCAACAACTTTCCCGGAGTCACCTAGTGCAG”, the binding signal was 9020 fluorescence intensity (a.u.).

“AGCAAGCCACTCGCAAATTTTCGCATTTTTTCTTTGCCGCCGGAGTCACCTAGTGCAG”: the binding signal was 8310 fluorescence intensity (a.u.).

On to “TCTCCATGTCACGCCGGCTGCCACCACCACGGTATAAAATCGGAGTCACCTAGTGCAG”, for which the binding signal was 8990 fluorescence intensity (a.u.).

Regarding “TAGCTCCATCGATCGCCCCGGCTCAACACGATCACAATCCCGGAGTCACCTAGTGCAG”, the binding signal is 8800 fluorescence intensity (a.u.).

In the case of “CTATACTACTCATTCCGTCTTAAAATACAAATACTTTTAGCGGAGTCACCTAGTGCAG”, the binding signal is 8210 fluorescence intensity (a.u.).

Consider “CAAGCTAAGTCCAGCTCGTGATGCTCATTCTCTCAGACTGCGGAGTCACCTAGTGCAG”, for which the binding signal was 8170 fluorescence intensity (a.u.).

For “TTTCGAATGTACTTTCCTATGATTATGTTCTACAAAGGTGCGGAGTCACCTAGTGCAG”, the binding signal was 8440 fluorescence intensity (a.u.).
